This note sets out measurements from the supplement of paper PMC7238544.

Counter-ions that a name gives are not always drawn. ± gives the standard deviation of the averaged measurements. The list shows a part of the results. The data scatter; read single values as rough.

The test system of assay [1] is hAMSC donor 1. Briefly: Hoechst total cell count ratio vs vehicle control; higher = more cells (less toxicity).
Assay [2] has as its system hAMSC donor 2. The assay is described as above.
For assay [3], the system named is hAMSC donor 1. Briefly: transgenic luciferase activity (RLU/mg protein) fold change vs vehicle control (ratio); higher = more transgene expression.
The test system of assay [4] is hAMSC donor 2. Described as above.
The subject of assay [5] is hAMSC donor 1. Put plainly: transfection efficiency (EGFP+ cells / Hoechst count) fold change vs vehicle control (ratio); hAMSC are human adipose-derived mesenchymal stem cells given an EGFP-luciferase plasmid by lipofection; higher = enhanced transfection.
Assay [6] concerns hAMSC donor 2. The description is as above.
[7] abbreviates: priming compound concentration 0.2 µM.
Where [8] appears, read: priming compound concentration 1.7 µM.
Setting [9] is: priming compound concentration 13 µM.

For the molecule `O=C1CN(/N=C/c2ccc(-c3ccc([N+](=O)[O-])cc3)o2)C(=O)N1` [Dantrolene sodium], the “Hoechst total cell count ratio” value in the assay on hAMSC donor 1 [1] (setting [7]) came to 1.24 ± 0.11; in the assay on hAMSC donor 1 [1] (setting [8]), 1.25 ± 0.086; in the assay on hAMSC donor 1 [1] (setting [9]), 1.24 ± 0.24; in the assay with hAMSC donor 2 [2] (setting [7]) it was 1.17 ± 0.088; in the assay with hAMSC donor 2 [2] (setting [8]), 1.1 ± 0.066; in the assay on hAMSC donor 2 [2] (setting [9]), 1.18 ± 0.092. In addition, the transgenic luciferase activity came to 0.857 ± 0.67 in the assay on hAMSC donor 1 [3] (setting [9]), 0.664 ± 0.053 in the assay with hAMSC donor 2 [4] (setting [7]) and 0.557 ± 0.16 with hAMSC donor 2 [4] (setting [9]). Besides, the transfection efficiency with hAMSC donor 1 [5] (setting [7]) was 1.04 ± 0.41; in the assay on hAMSC donor 1 [5] (setting [8]), 1.06 ± 0.22; with hAMSC donor 1 [5] (setting [9]) it was 1.07 ± 0.14; with hAMSC donor 2 [6] (setting [7]), 1.15 ± 0.067; in the assay on hAMSC donor 2 [6] (setting [8]), 0.966 ± 0.084; in the assay with hAMSC donor 2 [6] (setting [9]) it was 1.12 ± 0.14.

As to `C[C@H]1O[C@H](O[C@H]2[C@H](O)[C@@H](O)[C@@H](O[C@H]3[C@H](O)[C@@H](O)C(O)O[C@@H]3CO)O[C@@H]2CO)[C@H](O)[C@@H](O)[C@@H]1N[C@H]1C=C(CO)[C@@H](O)[C@H](O)[C@H]1O` (stereo not given in full) [Acarbose], the “Hoechst total cell count ratio” value was 1.34 ± 0.12 in the assay with hAMSC donor 1 [1] (setting [7]); 1.23 ± 0.11 in the assay on hAMSC donor 1 [1] (setting [8]); 1.09 ± 0.18 with hAMSC donor 1 [1] (setting [9]); 1.15 ± 0.067 in the assay with hAMSC donor 2 [2] (setting [7]); 1.12 ± 0.18 with hAMSC donor 2 [2] (setting [8]); 1.11 ± 0.13 in the assay with hAMSC donor 2 [2] (setting [9]). The transgenic luciferase activity with hAMSC donor 1 [3] (setting [9]) turned out to be 0.933 ± 0.18; in the assay with hAMSC donor 2 [4] (setting [7]), 0.819 ± 0.048; in the assay with hAMSC donor 2 [4] (setting [9]) it was 0.948 ± 0.33. For the same molecule, the transfection efficiency was 1.01 ± 0.16 in the assay on hAMSC donor 1 [5] (setting [7]); 1.05 ± 0.17 in the assay on hAMSC donor 1 [5] (setting [8]); 1.49 ± 0.27 in the assay with hAMSC donor 1 [5] (setting [9]); 1.12 ± 0.28 with hAMSC donor 2 [6] (setting [7]); 0.954 ± 0.046 in the assay on hAMSC donor 2 [6] (setting [8]); 0.968 ± 0.061 in the assay with hAMSC donor 2 [6] (setting [9]).

With `CC(C)c1ccc2c(c1)c(SC(C)(C)C)c(CC(C)(C)C(=O)O)n2Cc1ccc(Cl)cc1`, the “Hoechst total cell count ratio” value amounted to 1.24 ± 0.17 in the assay on hAMSC donor 1 [1] (setting [7]); 1.11 ± 0.2 in the assay with hAMSC donor 1 [1] (setting [8]); 1.51 ± 0.16 in the assay on hAMSC donor 1 [1] (setting [9]); 1.44 ± 0.11 in the assay on hAMSC donor 2 [2] (setting [7]); 1.38 ± 0.15 with hAMSC donor 2 [2] (setting [8]); 1.58 ± 0.058 with hAMSC donor 2 [2] (setting [9]). For the same molecule, the transgenic luciferase activity turned out to be 1.41 ± 0.21 with hAMSC donor 1 [3] (setting [8]), 0.713 ± 0.029 in the assay on hAMSC donor 2 [4] (setting [8]) and 0.245 ± 0.064 in the assay on hAMSC donor 2 [4] (setting [9]). Also, the transfection efficiency with hAMSC donor 1 [5] (setting [7]) was found to be 0.821 ± 0.06; in the assay on hAMSC donor 1 [5] (setting [8]) it was 1.15 ± 0.84; in the assay on hAMSC donor 1 [5] (setting [9]), 0.834 ± 0.23; in the assay with hAMSC donor 2 [6] (setting [7]), 0.844 ± 0.12; in the assay on hAMSC donor 2 [6] (setting [8]), 0.896 ± 0.088; in the assay with hAMSC donor 2 [6] (setting [9]), 0.433 ± 0.064.

As for `CC(=O)NCCCCCCNC(C)=O` [Hexamethylenebisacetamide], the “Hoechst total cell count ratio” value is 1.3 ± 0.16 in the assay on hAMSC donor 1 [1] (setting [7]); 1.47 ± 0.064 in the assay with hAMSC donor 1 [1] (setting [8]); 1.55 ± 0.29 in the assay with hAMSC donor 1 [1] (setting [9]); 1.38 ± 0.025 with hAMSC donor 2 [2] (setting [7]); 1.38 ± 0.047 in the assay with hAMSC donor 2 [2] (setting [8]); 1.2 ± 0.049 with hAMSC donor 2 [2] (setting [9]). The values for the transgenic luciferase activity in the assay with hAMSC donor 1 [3] (setting [8]), in the assay on hAMSC donor 2 [4] (setting [8]) and in the assay on hAMSC donor 2 [4] (setting [9]) were 0.334 ± 0.23, 0.907 ± 0.097 and 0.903 ± 0.31, respectively. Moreover, the transfection efficiency in the assay with hAMSC donor 1 [5] (setting [7]) worked out at 0.898 ± 0.24; in the assay with hAMSC donor 1 [5] (setting [8]), 1.1 ± 0.21; in the assay with hAMSC donor 1 [5] (setting [9]), 0.753 ± 0.017; with hAMSC donor 2 [6] (setting [7]), 0.82 ± 0.057; in the assay with hAMSC donor 2 [6] (setting [8]), 1.01 ± 0.13; in the assay on hAMSC donor 2 [6] (setting [9]) it was 1 ± 0.085.

As for `CC(C)NCC(O)c1ccc(O)c(O)c1` (stereo not given) [Isoproterenol hydrochloride], the “Hoechst total cell count ratio” value in the assay with hAMSC donor 1 [1] (setting [7]) came to 1.33 ± 0.022; in the assay with hAMSC donor 1 [1] (setting [8]) it was 1.55 ± 0.078; in the assay on hAMSC donor 1 [1] (setting [9]), 1.27 ± 0.072; in the assay on hAMSC donor 2 [2] (setting [7]) it was 1.11 ± 0.12; in the assay with hAMSC donor 2 [2] (setting [8]), 1.07 ± 0.092; in the assay with hAMSC donor 2 [2] (setting [9]), 1.18 ± 0.13. Besides, the results for the transgenic luciferase activity with hAMSC donor 1 [3] (setting [9]), in the assay on hAMSC donor 2 [4] (setting [7]) and with hAMSC donor 2 [4] (setting [9]) were 0.606 ± 0.067, 0.6 ± 0.32 and 0.752 ± 0.16, respectively. In addition, the transfection efficiency with hAMSC donor 1 [5] (setting [7]) is 0.97 ± 0.1; in the assay on hAMSC donor 1 [5] (setting [8]) it was 0.894 ± 0.21; with hAMSC donor 1 [5] (setting [9]) it was 0.738 ± 0.17; in the assay with hAMSC donor 2 [6] (setting [7]) it was 1.15 ± 0.065; in the assay with hAMSC donor 2 [6] (setting [8]) it was 0.843 ± 0.058; in the assay on hAMSC donor 2 [6] (setting [9]), 1.04 ± 0.13.

In the case of `O=C(NCCN1CCOCC1)c1ccc(Cl)cc1` [Moclobemide], the “Hoechst total cell count ratio” value in the assay on hAMSC donor 1 [1] (setting [7]) was determined as 1.13 ± 0.086; with hAMSC donor 1 [1] (setting [8]), 1.19 ± 0.057; in the assay with hAMSC donor 1 [1] (setting [9]) it was 1.12 ± 0.088; with hAMSC donor 2 [2] (setting [7]), 1.42 ± 0.15; in the assay on hAMSC donor 2 [2] (setting [8]) it was 1.32 ± 0.054; with hAMSC donor 2 [2] (setting [9]) it was 1.16 ± 0.031. Also, the transgenic luciferase activity in the assay with hAMSC donor 1 [3] (setting [8]) is 0.906 ± 0.43; with hAMSC donor 2 [4] (setting [8]), 0.737 ± 0.12; in the assay with hAMSC donor 2 [4] (setting [9]), 0.467 ± 0.085. For the same molecule, the transfection efficiency worked out at 0.916 ± 0.32 with hAMSC donor 1 [5] (setting [7]); 1.01 ± 0.33 in the assay with hAMSC donor 1 [5] (setting [8]); 1.13 ± 0.34 with hAMSC donor 1 [5] (setting [9]); 0.845 ± 0.17 in the assay with hAMSC donor 2 [6] (setting [7]); 1.03 ± 0.22 with hAMSC donor 2 [6] (setting [8]); 1 ± 0.067 in the assay with hAMSC donor 2 [6] (setting [9]).
